PubChem BioAssay AID1508588 – Peter MacCallum Cancer Centre, 2020
The whole screen tested about 18,000 reagents; this is a part drawn at random. Over the whole deposit, 790 (4.4%) got an active call. 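Calls rest on a combination of fold-change classes in drug and vehicle arms, not all shown here.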 Some reagents were tested in more than one well and are listed for each. Reagent sequences are not shown.

Aim: 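Knock-downs boosting vemurafenib effects on melanoma cell growth or lactate release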 (primary screen)
Cells: human WM266.4 melanoma cells (BRAF V600 mutant)
Reagent: siRNA pool against human genes, 40 nM
Timing: 96 h from transfection to read-out
Conditions: vemurafenib 300 nM (about IC25), added 48 h after transfection, for 48 h; comparison arm got DMSO vehicle only
Measured: 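Ratios to non-targeting siRNA for cell gain, counted as DAPI nuclei after minus before drug and averaged over two replicates, and for absorbance-read medium lactate per cell; both binned into fold-change classes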
Scale: cell gain with vemurafenib: higher = more cell gain than with non-targeting siRNA; lactate per cell with vemurafenib: higher = more lactate made per cell
Active means: 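a knock-down counts as enhancing when its fold-change classes with vehicle and with vemurafenib, taken together, show a stronger drug effect on cell gain or lactate per cell; exact class pairs not stated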
Meaning of the calls: active = enhances vemurafenib effect; inactive = no enhancement seen

NDUFV1
- cell gain with vemurafenib: 0.7
- lactate per cell with vemurafenib: 1.18
- outcome: inactive

OR2T1
- cell gain with vemurafenib: 0.35
- lactate per cell with vemurafenib: 1.2
- outcome: inactive

RPS4Y2
- cell gain with vemurafenib: 0.76
- lactate per cell with vemurafenib: 0.76
- outcome: inactive

USP31
- cell gain with vemurafenib: 0.62
- lactate per cell with vemurafenib: 0.73
- outcome: inactive

CRACR2B
- cell gain with vemurafenib: 0.65
- lactate per cell with vemurafenib: 0.48
- outcome: inactive

ZNF48
- cell gain with vemurafenib: 0.56
- lactate per cell with vemurafenib: 1.25
- outcome: inactive

ITGA11
- cell gain with vemurafenib: 0.46
- lactate per cell with vemurafenib: 0.55
- outcome: inactive

ZNF317
- cell gain with vemurafenib: 0.12
- lactate per cell with vemurafenib: 1.01
- outcome: inactive

MAN1B1
- cell gain with vemurafenib: 0.46
- lactate per cell with vemurafenib: 0.6
- outcome: inactive

PRIM2
- cell gain with vemurafenib: 0.28
- lactate per cell with vemurafenib: 1.56
- outcome: inactive

ACO1
- cell gain with vemurafenib: 0.3
- lactate per cell with vemurafenib: 0.72
- outcome: inactive

FAAP20
- cell gain with vemurafenib: 0.21
- lactate per cell with vemurafenib: 1.15
- outcome: inactive

ATG4A
- cell gain with vemurafenib: 0.34
- lactate per cell with vemurafenib: 1.62
- outcome: inactive

HEATR1
- cell gain with vemurafenib: 0.19
- lactate per cell with vemurafenib: 1.67
- outcome: inactive

RPS20
- cell gain with vemurafenib: 0.02
- lactate per cell with vemurafenib: 1.4
- outcome: inactive

HPDL
- cell gain with vemurafenib: 0.52
- lactate per cell with vemurafenib: 0.99
- outcome: inactive

GLIPR1L2
- cell gain with vemurafenib: 1.16
- lactate per cell with vemurafenib: 0.2
- outcome: inactive

TMED7
- cell gain with vemurafenib: 0.63
- lactate per cell with vemurafenib: 1.31
- outcome: inactive

SCGB1D1
- cell gain with vemurafenib: 0.11
- lactate per cell with vemurafenib: 1.44
- outcome: inactive

LZTS1
- cell gain with vemurafenib: -0.05
- lactate per cell with vemurafenib: 2.12
- outcome: inactive

ZNF17
- cell gain with vemurafenib: 0.97
- lactate per cell with vemurafenib: 1.04
- outcome: inactive

VCX3B
- cell gain with vemurafenib: 0.04
- lactate per cell with vemurafenib: 0
- outcome: active

IGSF5
- cell gain with vemurafenib: 0.77
- lactate per cell with vemurafenib: 0.6
- outcome: inactive

IRS4
- cell gain with vemurafenib: 0.84
- lactate per cell with vemurafenib: 0.82
- outcome: inactive

GLE1
- cell gain with vemurafenib: 0.95
- lactate per cell with vemurafenib: 0.39
- outcome: active

AFM
- cell gain with vemurafenib: 0.49
- lactate per cell with vemurafenib: 0.49
- outcome: active

RTBDN
- cell gain with vemurafenib: 0.32
- lactate per cell with vemurafenib: 0.65
- outcome: inactive

Looked up above:
Under “cell gain with vemurafenib”, AFM has 0.49
For “outcome”, PRIM2 shows inactive
GLIPR1L2, lactate per cell with vemurafenib: 0.2
Under “cell gain with vemurafenib”, RPS20 reads 0.02
NDUFV1, lactate per cell with vemurafenib = 1.18
Under “lactate per cell with vemurafenib”, ZNF17 is entered as 1.04

Continued.
REXO1L1P
- cell gain with vemurafenib: 0.72
- lactate per cell with vemurafenib: 1.88
- outcome: inactive

PDHB
- cell gain with vemurafenib: 0.4
- lactate per cell with vemurafenib: 0.46
- outcome: inactive

KEAP1
- cell gain with vemurafenib: 0.1
- lactate per cell with vemurafenib: 2.26
- outcome: inactive

KRTAP5-10
- cell gain with vemurafenib: 0.62
- lactate per cell with vemurafenib: 0.37
- outcome: inactive

TMEM205
- cell gain with vemurafenib: 0.42
- lactate per cell with vemurafenib: 0.86
- outcome: inactive

OR2T3
- cell gain with vemurafenib: 0.8
- lactate per cell with vemurafenib: 0.92
- outcome: inactive

SRA1
- cell gain with vemurafenib: 0.42
- lactate per cell with vemurafenib: 1.19
- outcome: inactive

CCDC159
- cell gain with vemurafenib: 0.28
- lactate per cell with vemurafenib: 0.42
- outcome: active

IGIP
- cell gain with vemurafenib: 0.33
- lactate per cell with vemurafenib: 1.76
- outcome: inactive

GRM7
- cell gain with vemurafenib: 0.91
- lactate per cell with vemurafenib: 0.74
- outcome: inactive

GRM7
- cell gain with vemurafenib: 1.19
- lactate per cell with vemurafenib: 0.81
- outcome: inactive

DYNC1I2
- cell gain with vemurafenib: 0.59
- lactate per cell with vemurafenib: 0.64
- outcome: inactive

MYO5C
- cell gain with vemurafenib: 1.12
- lactate per cell with vemurafenib: 0.4
- outcome: inactive

ANKRD13B
- cell gain with vemurafenib: 0.8
- lactate per cell with vemurafenib: 0.38
- outcome: active

HPCAL4
- cell gain with vemurafenib: 0.2
- lactate per cell with vemurafenib: 1.58
- outcome: inactive

PTPRM
- cell gain with vemurafenib: 0.64
- lactate per cell with vemurafenib: 0.51
- outcome: inactive

ANG
- cell gain with vemurafenib: 0.54
- lactate per cell with vemurafenib: 0.88
- outcome: inactive

SBNO1
- cell gain with vemurafenib: 0.42
- lactate per cell with vemurafenib: 1.52
- outcome: inactive

ZCCHC24
- cell gain with vemurafenib: 0.55
- lactate per cell with vemurafenib: 1.5
- outcome: inactive

NCOA6
- cell gain with vemurafenib: 0.62
- lactate per cell with vemurafenib: 1.7
- outcome: inactive

FGD3
- cell gain with vemurafenib: 0.51
- lactate per cell with vemurafenib: 0.75
- outcome: inactive

CEP131
- cell gain with vemurafenib: 0.89
- lactate per cell with vemurafenib: 0.88
- outcome: inactive

GNS
- cell gain with vemurafenib: 0.43
- lactate per cell with vemurafenib: 0.66
- outcome: inactive

MBD5
- cell gain with vemurafenib: 0.59
- lactate per cell with vemurafenib: 0.34
- outcome: inactive

STYXL1
- cell gain with vemurafenib: 0.5
- lactate per cell with vemurafenib: 0.98
- outcome: inactive
